# Laboratory results as given in patent US20050058645A1.
# Amino acid sequences for entries named in this document (tags omitted). Residues count along the entry.
# UniProt P35225, residues 35-146: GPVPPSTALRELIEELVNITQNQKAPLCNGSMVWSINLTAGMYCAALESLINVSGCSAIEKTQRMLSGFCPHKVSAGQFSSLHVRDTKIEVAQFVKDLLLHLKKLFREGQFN
# These are yes or no findings as the source states them, for the method shown. Some binding calls cover weakened binding; strength is not graded here. Sequences can lack the tags named with a protein.
# B1: chimeric human IL-13Rα1-Fc (Fc fusion, not shown: a dimerising Fc or GST)
# chain: GGGGAAPTETQPPVTNLSVSVENLCTVIWTWNPPEGASSNCSLWYFSHFGDKQDKKIAPETRRSIEVPLNERICLQVGSQCSTNESEKPSILVEKCISPPEGDPESAVTELQCIWHNLSYMKCSWLPGRNTSPDTNYTLYYWHRSLEKIHQCENIFREGQYFGCSFDLTKVKDSSFEQHSVQIMVKDNAGKIKPSFNIVPLTSRVKPDPPHIKNLSFHNDDLYVQWENPQNFISRCLFYEVEVNNSQTETHNVFYVQEAKCENPEFERNVENTSCFMVPGVLPDTLNTVRIRVKTNKLCYEDDKLWSNWSQEMSIGKKRNST
# B2: chimeric mouse IL-13Rα1-Fc (Fc fusion, UniProt O09030 26-340, looked up, not shown: a dimerising Fc or GST)
# chain: ATEVQPPVTNLSVSVENLCTIIWTWSPPEGASPNCTLRYFSHFDDQQDKKIAPETHRKEELPLDEKICLQVGSQCSANESEKPSPLVKKCISPPEGDPESAVTELKCIWHNLSYMKCSWLPGRNTSPDTHYTLYYWYSSLEKSRQCENIYREGQHIACSFKLTKVEPSFEHQNVQIMVKDNAGKIRPSCKIVSLTSYVKPDPPHIKHLLLKNGALLVQWKNPQNFRSRCLTYEVEVNNTQTDRHNILEVEEDKCQNSESDRNMEGTSCFQLPGVLADAVYTVRVRVKTNKLCFDDNKLWSDWSEAQSIGKEQNST
# Molecular target: human IL-13 (human) (UniProt P35225)
# Experiment: Biosensor, immobilized human IL-13, dose-response
row,Binder,binding
1,B1,binds
2,B2,binds
